# PubChem BioAssay AID1259254, NCATS, 2017
# Assay: 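Finding genes that stop cells copying their DNA twice in one cycle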 (primary screen)
# System: human HCT116 colorectal cancer cells
# Knock-down reagent: single siRNA against human genes
# Duration: 3 days
# Measurement: 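Imaged Hoechst DNA stain sorts each cell into a cycle phase by DNA amount; per plate, G2 fraction set to 0% for non-targeting and 100% for GMNN siRNA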
# Scale: G2 robust z-score: higher = more G2 cells, more excess DNA replication
# Rule for the call: 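Active siRNAs have a G2 robust z of 5 or more median absolute deviations over the median, which in these data means about 38% or higher of GMNN control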
# The whole screen tested about 59,000 reagents; this is an unselected part. Of all reagents, about 1,550 (2.6%) got an active call. 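G2 share is only a proxy for re-replication; each gene was hit by three separate siRNAs, and active genes were retested.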 Reagents against one gene are numbered here. Not all columns of the deposit are shown. The record does not give: the amount of reagent.
target,siRNA no.,G2 robust z-score,call
CFAP91,1,3.97,inactive
CFAP91,2,0.579,inactive
CFAP91,3,-0.918,inactive
FCGRT,1,0.944,inactive
FCGRT,2,-0.917,inactive
FCGRT,3,0.0214,inactive
GOT1L1,1,-0.898,inactive
GOT1L1,2,-0.519,inactive
GOT1L1,3,6.2,active
MRNIP,1,-0.161,inactive
MRNIP,2,-0.0401,inactive
MRNIP,3,0.195,inactive
DMBT1L1,1,1.96,inactive
DMBT1L1,2,0.0267,inactive
DMBT1L1,3,2.04,inactive
LALBA,1,3.85,inactive
LALBA,2,-0.488,inactive
LALBA,3,-0.49,inactive
MUC6,1,6.42,active
MUC6,2,-0.566,inactive
MUC6,3,-0.177,inactive
ENTREP1,1,4.39,inactive
ENTREP1,2,0.43,inactive
ENTREP1,3,1.73,inactive
BASP1,1,2.86,inactive
BASP1,2,-0.343,inactive
BASP1,3,-0.0225,inactive
RBM41,1,-0.576,inactive
RBM41,2,0.272,inactive
RBM41,3,-0.937,inactive
STX19,1,-0.53,inactive
STX19,2,-0.0802,inactive
STX19,3,-1.05,inactive
LOC728417,1,1.13,inactive
LOC728417,2,-0.957,inactive
LOC728417,3,0.397,inactive
SCNN1A,1,4.96,inactive
SCNN1A,2,-0.946,inactive
SCNN1A,3,0.952,inactive
CBY1,1,0.572,inactive
CBY1,2,-0.699,inactive
CBY1,3,-0.787,inactive
CALM1,1,1.85,inactive
CALM1,2,-1.19,inactive
CALM1,3,-0.334,inactive
DGKE,1,-0.103,inactive
DGKE,2,-0.0772,inactive
DGKE,3,-0.251,inactive
TTC39C,1,1.36,inactive
TTC39C,2,-0.585,inactive
TTC39C,3,1.55,inactive
KRTAP4-7,1,-1.39,inactive
KRTAP4-7,2,0.047,inactive
KRTAP4-7,3,0.439,inactive
HBEGF,1,-1.11,inactive
HBEGF,2,-0.424,inactive
HBEGF,3,0.709,inactive
BLOC1S2,1,-0.0749,inactive
BLOC1S2,2,-0.518,inactive
BLOC1S2,3,-0.713,inactive
LDAF1,1,3.43,inactive
LDAF1,2,-0.51,inactive
LDAF1,3,-0.577,inactive
VIPR1,1,1.16,inactive
VIPR1,2,2.38,inactive
VIPR1,3,0.323,inactive
DNAJC27-AS1,1,1.44,inactive
DNAJC27-AS1,2,-0.655,inactive
DNAJC27-AS1,3,-0.0228,inactive
